Measurements from patent US20160130293A1, “NOVEL COMPOUND DERIVED FROM PLANT OF GENUS QUAMOCLIT AND COMPOSITION CONTAINING SAME AS ACTIVE INGREDIENT FOR PREVENTING OR TREATING DIABETES” (KOREA RESEARCH INSTITUTE BIOSCIENCE, priority 2013, published 2016).

Test: Body weight of diabetic mice in 4-week study
Format: in vivo, mouse
Conditions: DB/DB mice, 1 mg/kg oral daily for 4 weeks
Method: 6-week-old mice (Male C57BL/6J mouse, 20 g, Central Lab. Animal Inc., Seoul) and 6-week-old diabetic mice (Male C57BL/Ks DB/DB mouse, 20 g, Central Lab. Animal Inc., Seoul) were purchased and acclimated under constant temperature (25° C.) and humidity (50%) for 1 week and used for the experiment.
Mice were classified into a normal mouse control group, a diabetic mouse control group, a diabetic mouse group treated with drug (glimepiride), a diabetic mouse group treated with the Quamoclit angulata-derived novel compound (KRIBB-BH-P, 1 mg/kg), and a diabetic mouse group treated with the Quamoclit angulata-derived novel compound (KRIBB-BH-SFP, 1 mg/kg), each group consisting of five mice. The treated mice were orally administered with the drug and compounds daily for 4 weeks. The change in blood glucose in mice of each group was measured every week, and after 4 weeks, blood was collected from each mouse to measure the concentration of glycated hemoglobin. […]

Structure (SMILES) | Final Weight [g]
CCCCCC(CCCC(O)CC(=O)O)OC1OC(COC2OC(C)C(OC3CC(O)C(O)C(C)O3)CC2O)C(O)C(O)C1OC1CC(O)C(OC2CC(O)C(OC3CC(O)C(OC)C(C)O3)C(C)O2)C(C)O1 (centres unmarked) [KRIBB-BH-P] | 49.9 ± 0.38
CCCCCC(CCCC(O)CC(=O)O)OC1OC(C)C(O)C(O)C1O (centres unmarked) [KRIBB-BH-SFP] | 49.8 ± 1.88
